Source: publication doi:10.1101/2025.08.28.672867, “Catalytic pocket of Clr4 (Suv39h) methyltransferase serves as a substrate receptor for Cullin 4-dependent histone H3 ubiquitination” (bioRxiv, 2025)
These are yes or no findings as the source states them, for the method shown. For some of these results: In cells and extracts the contact can be indirect. Some entries that bind do so weakly or less than the wild type. Sequences can lack the tags named with a protein. Each block holds one binder with its values, some of them ahead of it.

Amino acid sequences for entries named in this document (tags omitted).
UniProt O60016: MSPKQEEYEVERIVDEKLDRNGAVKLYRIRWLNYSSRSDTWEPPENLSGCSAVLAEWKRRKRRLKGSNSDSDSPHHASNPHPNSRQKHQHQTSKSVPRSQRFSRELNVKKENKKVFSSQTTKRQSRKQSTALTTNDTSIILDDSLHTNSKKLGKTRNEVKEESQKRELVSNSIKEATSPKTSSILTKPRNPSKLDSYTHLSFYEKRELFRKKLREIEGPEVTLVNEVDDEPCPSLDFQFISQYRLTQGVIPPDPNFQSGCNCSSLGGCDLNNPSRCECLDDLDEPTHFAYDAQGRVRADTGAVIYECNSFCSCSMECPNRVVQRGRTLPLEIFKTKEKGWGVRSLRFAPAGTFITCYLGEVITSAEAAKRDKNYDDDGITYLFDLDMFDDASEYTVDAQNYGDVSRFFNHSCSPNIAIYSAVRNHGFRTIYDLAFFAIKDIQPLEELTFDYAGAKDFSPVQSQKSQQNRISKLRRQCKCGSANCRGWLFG

Key:
[1] = molecular target: FLAG-Clr4 (N-terminal 3×FLAG), wild type (S. pombe) (UniProt O60016); test: co-IP; S. pombe lysates (wild-type, cul4-K680R and cul4–1 cells), Benzonase treated; 20 mM HEPES pH 7.5, 100 mM NaCl, 5 mM MgCl2, 1 mM EDTA, 10% glycerol; antibody cross-linked to Protein A or G beads, 3 h at 4 °C; western blot
6×His-MBP-Raf1 = molecular target: T1, 6×His-MBP-Raf1 (S. pombe, UniProt O74910 1-638); test: two-step affinity co-purification (Ni-NTA, amylose) + SEC; 6×His-MBP-Raf1, Raf2, Rik1 and Cul4 co-expressed from one bacmid in Hi5 cells; purified through the tags of Raf1; Superose 6 Increase 10/300 in 20 mM HEPES pH 7.5, 300 mM NaCl, 1 mM TCEP, 1 mM MgCl2, 10% glycerol; all 4 subunits in a single peak
T1 construct: Raf1 (Rik1-associated factor 1, DDB2 homolog), S. pombe; Expressed from one bacmid with Raf2, Rik1 and Cul4 and purified with them; A TEV site lies between MBP and Raf1; also called Raf1-MBP; Raf1 (DDB2 homolog); source: Hi5 insect cells (baculovirus), purified (Ni-NTA, amylose, SEC) together with Raf2, Rik1 and Cul4; not shown: His6, N-terminal, kept; MBP, N-terminal, kept
T1 sequence (looked up): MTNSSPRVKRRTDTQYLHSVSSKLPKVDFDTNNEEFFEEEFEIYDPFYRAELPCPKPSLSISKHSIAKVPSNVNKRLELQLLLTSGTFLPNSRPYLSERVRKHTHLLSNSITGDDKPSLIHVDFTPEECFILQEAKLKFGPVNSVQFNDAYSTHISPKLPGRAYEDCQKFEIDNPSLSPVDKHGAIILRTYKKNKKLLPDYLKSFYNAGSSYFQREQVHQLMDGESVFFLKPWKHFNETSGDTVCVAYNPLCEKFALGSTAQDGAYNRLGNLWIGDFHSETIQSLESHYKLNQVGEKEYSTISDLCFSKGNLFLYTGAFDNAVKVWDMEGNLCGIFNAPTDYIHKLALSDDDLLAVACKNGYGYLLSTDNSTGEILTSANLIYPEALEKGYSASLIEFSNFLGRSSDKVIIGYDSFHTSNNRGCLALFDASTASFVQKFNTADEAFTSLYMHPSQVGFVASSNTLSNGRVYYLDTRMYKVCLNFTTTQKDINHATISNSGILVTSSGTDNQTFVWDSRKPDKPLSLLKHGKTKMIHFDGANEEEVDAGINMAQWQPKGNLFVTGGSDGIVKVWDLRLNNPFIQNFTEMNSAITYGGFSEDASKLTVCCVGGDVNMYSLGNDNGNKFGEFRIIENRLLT

[2] = molecular target: T2, 6×His-MBP-Raf1 (S. pombe), O74910; test: as above; conditions: remark: other sources report otherwise
T2 chain: T1 sequence (looked up)

binding [1]: binds
B1: Rik1-myc (protein, UniProt Q10426 1-1040)
chain: MALCVHSFWATAVDTATSCHFISSENCLVLLQALKINIYLCSEVHGLQFFTSIPLFSTVKHIRPYRPPGLDRDYLFVVLNDDTYFSIYWDEDYQKVIVDHPPVRYRVTFPWNRNAKSYCLVDLRMRAIFLSIDEISMICIRILSAEERLKTGRSIDSGFPFSFPVHLIYDMCILNDSSTPTLVVLHSDGLDCYVTAFLLDLSSKSLGKGIRLFERVKPSMIMPFGKRGLLVFESLFIHCMYRGNFVTINGPCTTYMHWTPLKGQKMHYIVCDTNGYLFGVYSSILGKNKWSLVMERLPIPPFDFITSLNSIHEGLLFIGSKNSESKLINLSTLKDVDSIPNLGPIHDLLVLKNDIEKSFLVCAGTPRNASLIYFQHALKLDILGQTKISGILRAMVLPSYPEHKLFLGFPSETVAFNIKEDFQLELDPSLSTKERTIALSGTNGEFVQVTSTFLCIYDSAKRSRLVYIEKITNAACYQEYSAIVINGTALAIFKKDTEVARKVFESEISCLDFSAQFQIGVGFWSKQVMILTFSDNSSISCAFQTNVPSLPRNIILEGVGVDRNLLLVSSGSGEFKSYVLFKNNLVFSETKHFGTTPVSFRRFTMNIGTYIICNNDCPHMVYGFNGALCYMPLSMPQSYDVCQFRDNSGKDFLISVSLGGLKFLQLNPLPELTPRKVLLEHVPLQAIIFQNKLLLRTLENRYEDYESYKENYHLELVDSYDDNSFRVFSFTENERCEKVLKINESSLLVGTSIIEQDKLVPVNGRLILLEFEKELQSLKVVSSMVLSAAVIDLGVYNDRYIVAFGQQVAIVKLTEERLMIDSRISLGSIVLQLIVEGNEIAIADSIGRFTIMYFDGQKFIVVARYLFGENIVKAALYEGTVYIIATNSGLLKLLRYNKDAKNFNDRFICESVYHLHDKVSKFQNFPITNTNSFLEPKMLFATEIGAIGSIVSLKDKELELEELTRKIRKLKFSYLSSMDYESIEADLISPVPFIDGDLVIDVKRWASSELFRLCRSVEHRESLNSYQKVQALLEEIQSLC

binding (6×His-MBP-Raf1): binds
B2: Rik1 (untagged) (protein, UniProt Q10426 1-1040)
chain: B1 chain

binding (6×His-MBP-Raf1): binds
B3: Cul4 (untagged) (protein, UniProt O14122 1-734)
chain: MPPEAKRIVVKGFDPRKSRQRQETYYVTMIDRLNMALQVVMAGLGLKTGYQELYSGVENLTRADQASRCFNILQHHMSSGIQLLKDSAESFIQLEGTETDTNACTVVVGCWNKWLERVEIVQNIFYYMDKTFLSHHPDYPTIEELSLSLFREKLMAVKNIQIPFLNSLLQSFENLHSSKSTDHAYLQDAMLMLHRTEMYSSVFVPMYLVMLSRFYDTESSQKIQELPLEEYLEYAMSSLEREDAYVEKFDIVRDKKSIRETVQRCLITSHLDTLTKGISQFIEKRDAHSCKLLYALLQFNHETEYLIQPWSDCLVDVGFKLVNDESKDDTLVQELLSFHKFLQVVVDESFLHDETLSYAMRKAFETFINGAKGSQREAPARLIAKYIDYLLRVGEQASGGKPLKEVFSEILDLFRYIASKDIFEAYYKLDIAKRLLLNKSASAQNELMLLDMLKKTCGSQFTHSLEGMFRDVNISKEFTSSFRHSKAAHNLHRDLYVNVLSQAYWPSYPESHIRLPDDMQQDLDCFEKFYLSKQVGKKISWYASLGHCIVKARFPLGNKELSISLFQACVLLQFNNCLGGEGISYQDLKKSTELSDIDLTRTLQSLSCARIRPLVMVPKSKKPSPDTMFYVNEKFTDKLYRVKINQIYLKEERQENSDVQEQVVRDRQFELQASIVRVMKQKEKMKHDDLVQYVINNVKDRGIPLVSDVKTAIEKLLEKEYLEREDNDIYTYVT

binding [2]: binds
B4: Raf2 (untagged), O74560 1-636 (protein)
chain: MPPVRAEKKRKTDLIEQVCVTNKAGELVDLEDVLEYGPYSLTGILSSEKDEQEPLFDESIVLGYSIKISPVWTYNLKDVPEKETMSIWIVTPQRRYGILSPSSEYKAIYEQISEKNRLFYLIKTKFKDDMISGTLEDYDNYIEVLKEKLELPSCFQAILLVQKHIRFLLTQMVATSSLHVWSESPFFIRIRSSYEHLILQINKNIYNARQERKKSKLSSNNPSDNNTTMKSSLNQALTLINLPEQPFSISSPTATPQLGVVKRTSPLRFPLNDIWLSGLRIVDPNIESISLWKRIQVSTSPKHQRYISLQEVCSVIAQQLQITNLEALNKLSSHGETLLQIMHTAFTWRGTKLFNDIKHAIGFRSSVQQARSQFRGYCYDYLFMHCNNGEKTSLHLLRTLICMKLDFSNAQLAAKILFHFLLFDIGSGLSGSDYTYEQYINHSAVAFSFTEEIFEKNFVTVLPDFVKLFSISFGYWPAFSFYDELLKLLRNKYPKVYSSTPNLCDQVWLDRTNLFPCNRSTRSTLPYRPTKLLDLASASSCLSKKETDFKQDTGLYSYNLEKVEALKVSPDLQTGIWSCPVQNCLYFAVCDNPYKPSQVIYDHLLGHVDSKFIFKTPSNSVRSFTNKLEHIMYNIN
